Experimental findings from publication PMC3287977 are described below.

Results are given in words; binding and its absence hold for the method and conditions named. For some of these results: In cells and extracts the contact can be indirect. For some of these results: Binding calls can cover weak binding; strength is not graded here. Where a sequence is shown, tags or fusion partners need not be part of it.

One test addresses T1, GST-tagged A. fulgidus HypA (Archaeoglobus fulgidus) (UniProt O28904).
T1 sequence: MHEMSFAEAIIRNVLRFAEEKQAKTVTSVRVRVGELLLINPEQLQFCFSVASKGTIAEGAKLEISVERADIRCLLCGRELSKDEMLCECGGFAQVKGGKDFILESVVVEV
Description: pull-down; GST-AfHypA as bait on glutathione resin; lysate of His-SUMO-AfHypB (or variant) treated with SUMO protease, mixed with GST-AfHypA lysate; washed with PBS; eluted with 20 mM Tris pH 8.0, 0.1 M NaCl, 20 mM GSH; SDS-PAGE, Coomassie.
With “A. fulgidus HypB E5A (Archaeoglobus fulgidus)”, the binding result is listed as “binds”. Same read-out and setting: next, “A. fulgidus HypB L6A (Archaeoglobus fulgidus)”: “no binding”; “A. fulgidus HypB Y4A (Archaeoglobus fulgidus)”: “no binding”. In the case of “A. fulgidus HypB clustered-charge-to-alanine variant C10 (Archaeoglobus fulgidus)”, the binding result is “binds”. Still for that read-out and setting: next, “A. fulgidus HypB clustered-charge-to-alanine variant C11 (Archaeoglobus fulgidus)”: “binds”; “A. fulgidus HypB clustered-charge-to-alanine variant C12 (Archaeoglobus fulgidus)”: “binds”; “A. fulgidus HypB, tag-free (Archaeoglobus fulgidus)”: “binds”. Still for that read-out and setting: next, “C-terminal truncated A. fulgidus HypB variant (ΔC) (Archaeoglobus fulgidus) (domain or fragment)”: “binds”.

Take “N-terminal truncated A. fulgidus HypB variant (ΔN) (Archaeoglobus fulgidus) (domain or fragment)”: the binding result is listed as “no binding”.

The next test concerns the target T2, A. fulgidus HypA, tag-free (Archaeoglobus fulgidus) (UniProt O28904).
T2 sequence: T1 sequence
Description: condition: only AfHypB preloaded with GMPPNP and Ni (dimeric form); SEC-MALS; equimolar AfHypA and AfHypB preloaded with GMPPNP and Ni (dimeric form); Superdex-75 HR10/30, 50 mM Tris pH 7.5, 0.2 M NaCl, 1 mM TCEP, room temperature; peaks checked by SDS-PAGE; both purified.
Turning to “A. fulgidus HypB, tag-free (Archaeoglobus fulgidus)”, the binding entry is given as “no binding”.
